Assay results from PubChem BioAssay AID1671190 (National Center for Advancing Translational Sciences (NCATS), 2021).
The whole screen tested about 580,000 compounds, of which about 6,100 (1.1%) were called active. The inconclusive results got no clear call from the source; some entries with a clear call stand among them for comparison. Calls follow the shape of the dose curve; as a rule, active = well fitted inhibition curve with a large enough effect; inconclusive = small, poorly fitted or top-dose-only effect, or another doubt; inactive = no such curve, though single readings can be large or run the other way. Potencies of inconclusive entries are doubtful fits and often do not repeat.
% is scaled to controls: 0 for no effect and ±100 for the full control effect; potency is read from the fitted curve at half-maximal effect.

By UniProt entry, the sequences of proteins in these tests, tags left out. Where a name states a change or a piece, a line headed by the entry shows the natural chain unless it says otherwise.
UniProt P18054: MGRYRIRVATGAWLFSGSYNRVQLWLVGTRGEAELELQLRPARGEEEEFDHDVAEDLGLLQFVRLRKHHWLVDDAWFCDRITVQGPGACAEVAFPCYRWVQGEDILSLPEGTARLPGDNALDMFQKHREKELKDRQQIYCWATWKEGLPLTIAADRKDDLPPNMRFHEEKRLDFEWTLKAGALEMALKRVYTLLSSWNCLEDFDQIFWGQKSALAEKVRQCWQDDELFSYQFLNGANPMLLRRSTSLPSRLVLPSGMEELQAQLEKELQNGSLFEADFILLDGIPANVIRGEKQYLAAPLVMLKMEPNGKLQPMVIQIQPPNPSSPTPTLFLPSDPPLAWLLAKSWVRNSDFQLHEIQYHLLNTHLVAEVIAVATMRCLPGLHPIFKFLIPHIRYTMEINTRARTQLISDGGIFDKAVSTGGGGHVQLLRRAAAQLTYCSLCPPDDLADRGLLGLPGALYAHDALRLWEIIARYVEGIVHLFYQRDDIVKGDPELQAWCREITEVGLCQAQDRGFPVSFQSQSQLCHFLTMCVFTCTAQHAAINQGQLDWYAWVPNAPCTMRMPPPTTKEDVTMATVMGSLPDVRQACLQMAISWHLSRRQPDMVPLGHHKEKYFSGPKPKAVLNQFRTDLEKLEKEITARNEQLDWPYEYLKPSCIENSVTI

What follows are compounds tested against Polyunsaturated fatty acid lipoxygenase ALOX12 (Homo sapiens) (UniProt P18054) (assay: Primary qHTS assay for inhibitors of human arachidonate 12S-lipoxygenase (ALOX12): Round 2). Conditions: purified 12hLO, xylenol orange hydroperoxide absorbance; activity change, negative = inhibition: at 108 µM (top of the series) unless noted.
How it was run: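 Hydroperoxide product was detected by ferrous iron/xylenol orange as the 573 to 405 nm absorbance ratio. Arachidonic acid at 40 uM (final) was turned over for 30 min at room temperature by 150 nM human 12hLO, pH 7.0 Hepes buffer, after 15 min compound preincubation.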
With `O=C(NC(NC(=S)Nc1cccc(C(=O)O)c1)C(Cl)(Cl)Cl)OCc1ccccc1` (stereo not given) the “activity change, negative = inhibition” value was inactive: 0.021%.
In the case of `CSCCC(=O)NC1CCCN(CCc2ccccc2)C1` (stereo not given), the Potency is reported as inconclusive: 126 µM [inhibitor, partial curve, poor fit].
`O=C(CCNC(=O)c1ccc([N+](=O)[O-])cc1)NCCc1ccc(Cl)cc1` was tested, and the Potency was inconclusive: 112 µM [inhibitor, partial curve, poor fit].
In the case of `OC(COc1ccc(OCC(O)CN(Cc2ccccc2)Cc2ccccc2)cc1)CN(Cc1ccccc1)Cc1ccccc1` (stereo not given), the Potency is reported as inconclusive: 50.1 µM [inhibitor, single point].
`COc1ccc(C(=O)c2oc3ccccc3c2NC(=O)COc2c(C)cc(C)cc2C)cc1` was tested, and the “activity change, negative = inhibition” value was inactive: -13.5%.
`COc1ccc(-c2nc3c(c(=O)[nH]2)CCN(C(=O)Cc2c[nH]c4ccccc24)C3)cc1` was tested, and the Potency was inconclusive: 79.4 µM [inhibitor, single point].
With `CC1CCC(=C(C#N)C(=O)Nc2cccc(Cl)c2)CC1` (stereo not given) the Potency was inconclusive: 79.4 µM [inhibitor, partial curve, poor fit].
In the case of `CCCOc1ccccc1Oc1ncccc1CNC(=O)Nc1ccccc1`, the Potency is reported as inconclusive: 63.1 µM [inhibitor, partial curve, poor fit].
For `CC(C)Cc1nnc(NC(=O)CS(=O)(=O)Cc2ccccc2)s1`, the Potency was inconclusive: 70.8 µM [inhibitor, partial curve, poor fit].
In the case of `Cc1cc(C(=O)N2C[C@@H](C)[C@@](C)(O)C2)cc(S(N)(=O)=O)c1C`, the “activity change, negative = inhibition” value is reported as inactive: 9.22%.
In the case of `CN(/N=C\c1ccc(O)c(O)c1)c1nc(-c2ccccc2)cc(-c2ccccc2)n1`, the Potency is reported as inconclusive: 44.7 µM [inhibitor, partial curve, poor fit].
`Cc1ccc(-n2ncc(C(=O)NCc3cccs3)c2C2CCN(C(=O)OC(C)(C)C)CC2)cc1C` was tested, and the “activity change, negative = inhibition” value was inactive: 0%.
For `O=C(NC(=S)Nc1ccccn1)c1ccc(-c2ccccc2)cc1`, the Potency was active: 31.6 µM.
For `Brc1ccc(Oc2ncc(CN3CCN(c4ccccc4)CC3)s2)cc1`, the Potency was inconclusive: 56.2 µM [inhibitor, partial curve, poor fit].
In the case of `C[C@@H]1CN([C@H](C)CO)C(=O)c2cc(NC(=O)Nc3ccccc3)ccc2O[C@@H](C)CCCCO[C@H]1CN(C)S(C)(=O)=O`, the Potency is reported as inconclusive: 100 µM [inhibitor, single point].
For `CCOc1ccc(NC(=O)N2CCc3cc(OC)c(OC)cc3C2CNC(=O)C2CC2)cc1` (stereo not given), the “activity change, negative = inhibition” value was inactive: 44%.
In the case of `Cc1ccc2oc(=O)cc(CN3CCN(c4cccc(Cl)c4)CC3)c2c1`, the “activity change, negative = inhibition” value is reported as inactive: -2.25%.
`Cn1c(=O)oc2cc(S(=O)(=O)NCCC(=O)Nc3ccc(F)c(Cl)c3)ccc21` was tested, and the Potency was inconclusive: 112 µM [inhibitor, partial curve, poor fit].
With `COC(=O)c1cccc(NC(=S)N[C@H]2CO[C@H]3[C@@H]2OC[C@H]3OC(=O)Nc2cccc3ccccc23)c1` the Potency was inconclusive: 79.4 µM [inhibitor, partial curve, poor fit].
In the case of `Cc1c(C(=O)OCCOc2ccccc2)[nH]c2c1C(=O)CCC2`, the Potency is reported as inconclusive: 14.1 µM [inhibitor, full curve, poor fit].
`CCCCCn1c(SCC(N)=O)nc2c1c(=O)[nH]c(=O)n2C` was tested, and the “activity change, negative = inhibition” value was inactive: 36.1%.
In the case of `COc1ccc(Sc2nnc(Cc3ccccc3)c3ccccc23)cc1`, the Potency is reported as inconclusive: 112 µM [inhibitor, partial curve, poor fit].
In the case of `CCSc1nc(COC(=O)NC)c(COC(=O)NC)n1C`, the “activity change, negative = inhibition” value is reported as inactive: -0.601%.
In the case of `O=C1C2CC=C(Cl)CC2C(=O)N1CN(Cc1ccco1)CN1C(=O)C2CC=C(Cl)CC2C1=O` (stereo not given), the “activity change, negative = inhibition” value is reported as inactive: -3.36%.
For `Cc1ccc(Cl)cc1NC(=O)/C(C#N)=C/c1c(C)n(Cc2ccccc2)c2ccccc12`, the Potency was inconclusive: 15.8 µM [inhibitor, full curve, poor fit].
For `COc1ccc(Cn2c(=S)[nH]c3cc(C(=O)N4CCN(c5ccccc5)CC4)ccc3c2=O)cc1`, the “activity change, negative = inhibition” value was inactive: 29.1%.
In the case of `Cc1ccccc1NC(=O)C1C2CCC(O2)C1C(=O)O` (stereo not given), the Potency is reported as inconclusive: 28.2 µM [inhibitor, partial curve, poor fit].
`CCCN(C)c1ccc(/C=N/NC(=S)Nc2cccc(SC)c2)cc1` was tested, and the Potency was inconclusive: 112 µM [inhibitor, partial curve, poor fit].
`CCOC(=O)Cc1csc(SCC(=O)NC(C)CC)n1` (stereo not given) was tested, and the Potency was inconclusive: 100 µM [inhibitor, partial curve, poor fit].
In the case of `S=c1[nH]nc(Cc2noc3ccccc23)n1-c1ccccc1`, the “activity change, negative = inhibition” value is reported as inactive: -13%.
In the case of `O=c1n(-c2ccc(C(F)(F)F)cc2)nc2n1CCN(CC1CCCCC1)C2`, the activity change, negative = inhibition is reported as inconclusive: -34.8% [inhibitor].
For `CN(C(=O)c1cccs1)C1(C)CCS(=O)(=O)C1` (stereo not given), the Potency was inconclusive: 35.5 µM [inhibitor, single point].
In the case of `Cc1cc(C(=O)N/N=C/c2ccncc2)cs1`, the Potency is reported as inconclusive: 141 µM [inhibitor, partial curve, poor fit].
In the case of `CCn1nc(C(=O)OCC(=O)Nc2nc(-c3ccc(OC)cc3)cs2)c2ccccc2c1=O`, the Potency is reported as inconclusive: 17.8 µM [inhibitor, full curve].
In the case of `Fc1ccc(NC(=S)NCCSc2ccc(Cl)cc2)cc1`, the Potency is reported as inconclusive: 44.7 µM [inhibitor, partial curve, poor fit].
For `Cc1ccc(C(=O)N/C(=C\c2ccc(-c3ccc([N+](=O)[O-])cc3)o2)C(=O)NC2CCS(=O)(=O)C2)cc1` (stereo not given), the Potency was inconclusive: 50.1 µM [inhibitor, partial curve, poor fit].
For `CCCCCC(=O)N1C[C@@H](n2cc(-c3ccc(F)cc3)nn2)[C@H](O)C[C@@H]1c1ccc(Cl)cc1`, the “activity change, negative = inhibition” value was inactive: -6.42%.
`c1ccc(-c2ccc3cnccc3n2)cc1` was tested, and the Potency was inconclusive: 126 µM [inhibitor, single point].
`Cc1nc(N2CCN(c3ccccn3)CC2)c2c(C)c(C(=O)N3CCN(c4ccc(F)cc4)CC3)sc2n1` was tested, and the “activity change, negative = inhibition” value was inactive: -19.5%.
With `CC1CC(=O)Nc2cc(S(=O)(=O)NCCc3ccco3)ccc2S1` (stereo not given) the Potency was inconclusive: 63.1 µM [inhibitor, partial curve, poor fit].
In the case of `Cc1cccc(NC(=O)CSc2nc3cc([N+](=O)[O-])ccc3o2)c1`, the Potency is reported as active: 31.6 µM.
With `CC(C)CCN1CCC(N2CCN(C(=O)c3ccccc3F)CC2)C1=O` (stereo not given) the “activity change, negative = inhibition” value was inactive: 41.3%.
`O=C(NCCO)c1cccc(-c2cc(Nc3ccc(OC(F)(F)F)cc3)ncn2)c1` was tested, and the Potency was inconclusive: 100 µM [inhibitor, single point].
With `CC(C)=CCC/C(C)=C/CNC(=O)C[C@H]1C[C@H](C(=O)N2CCOCC2)[C@@]2(C)c3[nH]c4cc(CCC(=O)N(C)C)ccc4c3CCN2C1=O` the “activity change, negative = inhibition” value was inactive: -9.17%.
`Cc1noc(-c2ccn3c(CNC(=O)c4cc(F)ccc4F)nnc3c2)n1` was tested, and the “activity change, negative = inhibition” value was inactive: 17.4%.
With `COc1cccc(-c2nc(SCc3cc(=O)c4cc(Cl)ccc4[nH]3)n[nH]2)c1` the Potency was inconclusive: 35.5 µM [inhibitor, full curve, poor fit].
In the case of `O=C(CC1SC(N2CCCC2)=NC1=O)Nc1ccc(C(=O)NCCOc2ccccc2F)cc1` (stereo not given), the activity change, negative = inhibition is reported as inconclusive: -32.6% [inhibitor].
`O=C(NCCc1ccc(Cl)cc1)c1ccc2nc(Cc3ccccc3)oc2c1` was tested, and the Potency was inconclusive: 126 µM [inhibitor, partial curve, poor fit].
In the case of `Cc1ccccc1C(=O)Nc1ccc2oc(-c3ccc(F)cc3)cc(=O)c2c1`, the Potency is reported as inconclusive: 112 µM [inhibitor, single point].
In the case of `O=C(CN1CCN(c2ccc(F)cc2)CC1)OCc1ccccc1`, the Potency is reported as inconclusive: 56.2 µM [inhibitor, partial curve, poor fit].
In the case of `Nc1[nH]c(C(=O)c2ccccc2)c(-c2ccc(Cl)cc2Cl)c1C(=O)c1ccccc1`, the Potency is reported as inconclusive: 56.2 µM [inhibitor, partial curve, poor fit].
In the case of `Cn1c(=O)c2c(ncn2CCCNC2=NCCC2)n(C)c1=O`, the “activity change, negative = inhibition” value is reported as inactive: -35.7%.
For `C=CCOc1cccc(NC(=O)CC)c1`, the Potency was inconclusive: 1 µM [inhibitor, partial curve, poor fit].
In the case of `COC(=O)Nc1ccc(CNC(=O)c2ccc(C)cc2)cc1`, the “activity change, negative = inhibition” value is reported as inactive: -3.84%.
`COCCNC(=O)Cn1nc(C)c2sc(-c3ccccc3)nc2c1=O` was tested, and the “activity change, negative = inhibition” value was inactive: 21.7%.
For `Cc1ccc(Cn2nc(C)c(NC(=O)c3nn(C)cc3Cl)c2C)cc1`, the “activity change, negative = inhibition” value was inactive: 0%.
In the case of `COc1ccc2[nH]c3c(c2c1)CCN1C(=O)C(CC(=O)NCC24CC5CC(CC(C5)C2)C4)C[C@H](C(=O)N2CCOCC2)[C@@]31CCC1CCCC1` (stereo not given in full), the Potency is reported as inconclusive: 79.4 µM [inhibitor, single point].
For `Cc1cc(CNC(=O)[C@@H]2CCC[C@@H](NC(=O)NC3(c4ccccc4)CCOCC3)CN(C)C(=O)C2)no1`, the Potency was inconclusive: 39.8 µM [inhibitor, partial curve].
With `CCOC(=O)C1=C(C)N(CC(C)C)C(=O)/C1=C\c1cccs1` the Potency was inconclusive: 31.6 µM [inhibitor, full curve, poor fit].
In the case of `Cc1ccc2c(c1)CCCN2C(=O)c1cc(C)nc2ccccc12`, the “activity change, negative = inhibition” value is reported as inactive: 2.48%.
For `FC(F)Oc1ccc(/C=N/NC(=S)NCc2ccccc2)cc1`, the Potency was inconclusive: 44.7 µM [inhibitor, partial curve, poor fit].
For `c1ccc(-c2ccc3ncc(Nc4ccccn4)n3n2)cc1`, the Potency was inconclusive: 112 µM [inhibitor, partial curve].
In the case of `COc1ccc2c(Sc3ccccc3)c(C(=O)NCCN(C)C)[nH]c2c1`, the Potency is reported as inconclusive: 39.8 µM [inhibitor, partial curve, poor fit].
For `Fc1ccccc1N1CCN(CC2CC3C=CC2C3)CC1` (stereo not given), the Potency was inconclusive: 3.55 µM [inhibitor, full curve, poor fit].
